Measurements reported in the supplement of paper PMC6143611.
Counter-ions that a name gives are not always drawn. ± gives the uncertainty stated by the source. Some of the results follow. Part of the spread comes from offsets between plates or batches.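 Larvae carried a heat-shock-induced fluorescent stripe in rod outer segments, set at 6 dpf; the shedding distance runs from this stripe to the outer segment tip, measured in confocal stacks, about three fish per compound. The controls got 0.2% DMSO vehicle, and the paper flagged compounds with at least a 20% change against the same-week control and p < 0.001 (Dunnett test on mixed-effects models).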

tested on: Danio rerio larva rod photoreceptor outer segment; assay: rod outer segment growth distance Dg, difference from same-week DMSO control mean; higher = more outer segment growth; conditions: 20 µM; treatment time: 4 days (6-10 dpf)

Row | SMILES | rod outer segment growth distance Dg [um]
1 | N#CSc1cc(SC#N)c(N)nc1N | 0.3 ± 0.26
2 | Cc1nnc(C(C)C)n1C1C[C@H]2CC[C@@H](C1)N2CC[C@H](NC(=O)C1CCC(F)(F)CC1)c1ccccc1 (stereo in doubt) [Maraviroc] | -0.75 ± 0.25
3 | O=c1[nH]c(=O)n([C@H]2C[C@H](O)[C@@H](CO)O2)cc1C(F)(F)F [Trifluridine] | -0.72 ± 0.21
4 | c1ccc(C2CN3CCSC3=N2)cc1 (single isomer, unassigned; (-)) [(-)-Tetramisole] | 0.44 ± 0.24
5 | C[C@@H]1O[C@@H](O[C@H]2[C@H](Oc3cc(O)c4c(c3)O[C@H](c3ccc(O)cc3)CC4=O)O[C@H](CO)[C@@H](O)[C@@H]2O)[C@H](O)[C@H](O)[C@H]1O [Naringin] | -2.17 ± 1.2
6 | CCN1CCCC1CNC(=O)c1cc(S(=O)(=O)CC)c(N)cc1OC (configuration not stated) [Amisulpride] | -0.5 ± 0.14
7 | c1coc(CNc2ncnc3[nH]cnc23)c1 [Kinetin] | 0.41 ± 0.3
8 | Cc1cn([C@H]2C=C[C@@H](CO)O2)c(=O)[nH]c1=O [Stavudine (d4T)] | -1.23 ± 0.24
9 | CNC[C@H](O)c1ccc(O)c(O)c1 [Epinephrine Bitartrate] | -0.32 ± 0.21

Looked up above.
`CNC[C@H](O)c1ccc(O)c(O)c1` [Epinephrine Bitartrate] – rod outer segment growth distance Dg [um]: -0.32 ± 0.21
`O=c1[nH]c(=O)n([C@H]2C[C@H](O)[C@@H](CO)O2)cc1C(F)(F)F` [Trifluridine] – rod outer segment growth distance Dg [um]: -0.72 ± 0.21

tested on: Danio rerio larva rod photoreceptor outer segment; assay: rod outer segment shedding distance Ds, difference from same-week DMSO control mean; higher = less outer segment shedding; conditions: 20 µM; treatment time: 4 days (6-10 dpf)

Row | SMILES | rod outer segment shedding distance Ds [um]
10 | COc1cc(Nc2ncc(F)c(Nc3ccc4c(n3)N(COP(=O)(O)O)C(=O)C(C)(C)O4)n2)cc(OC)c1OC [Fostamatinib (R788)] | -0.19 ± 0.1
11 | CO[C@H]1O[C@@H]2O[C@@]3(C)CC[C@H]4[C@H](C)CC[C@@H]([C@H]1C)[C@@]24OO3 [Artemether] | 0.45 ± 0.36
12 | COc1cc(Nc2nc3ccccc3nc2NS(=O)(=O)c2ccc(NC(=O)c3ccc(C)c(OC)c3)cc2)cc(OC)c1 | 0.69 ± 0.17
13 | COc1ccc([C@]2(C#N)CC[C@@H](C(=O)O)CC2)cc1OC1CCCC1 [Cilomilast] | -0.45 ± 0.18
14 | C=C1[C@H](CO)[C@@H](O)C[C@@H]1n1cnc2c(=O)[nH]c(N)nc21 [Entecavir Hydrate] | 0.2 ± 0.29
15 | CC[C@H]1OC(=O)[C@H](C)[C@@H](O[C@H]2C[C@@](C)(OC)[C@@H](O)[C@H](C)O2)[C@H](C)[C@@H](O[C@@H]2O[C@H](C)C[C@H](N(C)C)[C@H]2O)[C@](C)(O)C[C@@H](C)C(=O)[C@H](C)[C@@H](O)[C@]1(C)O [Erythromycin] | 0.42 ± 0.2
16 | CN(CCOc1ccc(CC2SC(=O)NC2=O)cc1)c1ccccn1 (configuration not stated) [Rosiglitazone] | -0.75 ± 0.15
17 | CCCCC(=O)N(Cc1ccc(-c2ccccc2-c2nnn[nH]2)cc1)[C@H](C(=O)O)C(C)C [Valsartan] | -0.17 ± 0.28
18 | CC(C)(C)c1cc(C(C)(C)C)c(NC(=O)c2c[nH]c3ccccc3c2=O)cc1O [Ivacaftor (VX-770)] | -0.17 ± 0.21
19 | NCCc1ccc(O)c(O)c1 [Dopamine HCl] | 0.09 ± 0.2
20 | COc1cc(F)c(C(C)C)cc1-c1ccc(C(F)(F)F)cc1CN1C(=O)O[C@H](c2cc(C(F)(F)F)cc(C(F)(F)F)c2)[C@@H]1C [Anacetrapib (MK-0859)] | -0.34 ± 0.13
21 | COc1cnc(NS(=O)(=O)c2ccc(N)cc2)nc1 [Sulfameter] | -0.42 ± 0.17
22 | O=C(O)C(=O)O.[NH-][C@@H]1CCCC[C@H]1[NH-].[Pt+2] [Oxaliplatin] | -0.75 ± 0.21
23 | CC(=O)O[C@@]12CO[C@@H]1C[C@H](O)[C@@]1(C)C(=O)[C@H](O)C3=C(C)[C@@H](OC(=O)[C@H](O)[C@@H](NC(=O)OC(C)(C)C)c4ccccc4)C[C@@](O)([C@@H](OC(=O)c4ccccc4)[C@H]21)C3(C)C [Docetaxel] | -0.94 ± 0.26
24 | CC(NC(=O)c1ccccc1/N=C/c1c(O)ccc2ccccc12)c1ccccc1 (configuration not stated) [Sirtinol] | -0.18 ± 0.13
25 | COc1ccc(/C=C/C(=O)Nc2ccccc2C(=O)O)cc1OC [Tranilast] | -0.17 ± 0.23
26 | COc1nc(N)nc2c1ncn2[C@@H]1O[C@H](CO)[C@@H](O)[C@@H]1O [Nelarabine] | -0.16 ± 0.23
27 | Nc1[nH]cnc2ncnc1-2 [Adenine HCl] | 0.54 ± 0.22
28 | CCOC(=O)[C@H](CCc1ccccc1)N[C@@H](C)C(=O)N1C(=O)N(C)C[C@H]1C(=O)O [Imidapril HCl] | 0.29 ± 0.28

Row | SMILES | rod outer segment shedding distance Ds [um]
29 | C[C@@H]1C[C@H]2[C@@H]3CCC4=CC(=O)C=C[C@]4(C)[C@@]3(F)[C@@H](O)C[C@]2(C)[C@@]1(O)C(=O)CO [Dexamethasone (DHAP)] | 0.36 ± 0.15
30 | C[C@]12CCC(=O)C=C1CC[C@@H]1[C@@H]2[C@@H](O)C[C@@]2(C)[C@H]1CC[C@]2(O)C(=O)CO [Hydrocortisone] | 0.27 ± 0.15
31 | CC(C)n1nc(-c2cc3cc(O)ccc3[nH]2)c2c(N)ncnc21 | -0.8 ± 0.34
32 | O=C(O)COCCN1CCN(C(c2ccccc2)c2ccc(Cl)cc2)CC1 (configuration not stated) [Cetirizine DiHCl] | -0.42 ± 0.2
33 | CO[C@H]1C[C@@H]2CC[C@@H](C)[C@@](O)(O2)C(=O)C(=O)N2CCCC[C@H]2C(=O)O[C@H]([C@H](C)C[C@@H]2CC[C@@H](OC(=O)C(C)(CO)CO)[C@H](OC)C2)CC(=O)[C@H](C)/C=C(\C)[C@@H](O)[C@@H](OC)C(=O)[C@H](C)C[C@H](C)/C=C/C=C/C=C/1C | -1.39 ± 0.2
34 | CN(C)C(=O)C(CCN1CCC(O)(c2ccc(Cl)cc2)CC1)(c1ccccc1)c1ccccc1 [Loperamide HCl] | -0.21 ± 0.27
35 | Cc1cc(NC(=O)Nc2ccc(N(C)C)cc2)c2cc(F)cc(F)c2n1 | 0.35 ± 0.15
36 | CN1C(C(=O)Nc2ccccn2)=C(O)c2ccccc2S1(=O)=O [Piroxicam] | 0.22 ± 0.17
37 | C[C@H](Cc1cc2c(c(C(N)=O)c1)N(CCCO)CC2)NCCOc1ccccc1OCC(F)(F)F [Silodosin] | -0.09 ± 0.15
38 | C[C@H]1O[C@@H](n2cc(F)c(=O)[nH]c2=O)[C@H](O)[C@@H]1O [Doxifluridine] | -0.58 ± 0.29
39 | N#CSc1cc(SC#N)c(N)nc1N | -1.48 ± 0.4
40 | Cc1nnc(C(C)C)n1C1C[C@H]2CC[C@@H](C1)N2CC[C@H](NC(=O)C1CCC(F)(F)CC1)c1ccccc1 (stereo in doubt) [Maraviroc] | -0.42 ± 0.27
41 | O=c1[nH]c(=O)n([C@H]2C[C@H](O)[C@@H](CO)O2)cc1C(F)(F)F [Trifluridine] | -0.19 ± 0.13
42 | c1ccc(C2CN3CCSC3=N2)cc1 (single isomer, unassigned; (-)) [(-)-Tetramisole] | -0.9 ± 0.36
43 | C[C@@H]1O[C@@H](O[C@H]2[C@H](Oc3cc(O)c4c(c3)O[C@H](c3ccc(O)cc3)CC4=O)O[C@H](CO)[C@@H](O)[C@@H]2O)[C@H](O)[C@H](O)[C@H]1O [Naringin] | -3.68 ± 1.3
44 | CCN1CCCC1CNC(=O)c1cc(S(=O)(=O)CC)c(N)cc1OC (configuration not stated) [Amisulpride] | -0.7 ± 0.18
45 | c1coc(CNc2ncnc3[nH]cnc23)c1 [Kinetin] | 0.8 ± 0.3
46 | Cc1cn([C@H]2C=C[C@@H](CO)O2)c(=O)[nH]c1=O [Stavudine (d4T)] | -0.83 ± 0.28
47 | CNC[C@H](O)c1ccc(O)c(O)c1 [Epinephrine Bitartrate] | -0.07 ± 0.31

13 entries from above, as tab-separated lines.
Row	SMILES	rod outer segment shedding distance Ds [um]
35	Cc1cc(NC(=O)Nc2ccc(N(C)C)cc2)c2cc(F)cc(F)c2n1	0.35 ± 0.15
36	CN1C(C(=O)Nc2ccccn2)=C(O)c2ccccc2S1(=O)=O [Piroxicam]	0.22 ± 0.17
37	C[C@H](Cc1cc2c(c(C(N)=O)c1)N(CCCO)CC2)NCCOc1ccccc1OCC(F)(F)F [Silodosin]	-0.09 ± 0.15
38	C[C@H]1O[C@@H](n2cc(F)c(=O)[nH]c2=O)[C@H](O)[C@@H]1O [Doxifluridine]	-0.58 ± 0.29
39	N#CSc1cc(SC#N)c(N)nc1N	-1.48 ± 0.4
40	Cc1nnc(C(C)C)n1C1C[C@H]2CC[C@@H](C1)N2CC[C@H](NC(=O)C1CCC(F)(F)CC1)c1ccccc1 (stereo in doubt) [Maraviroc]	-0.42 ± 0.27
41	O=c1[nH]c(=O)n([C@H]2C[C@H](O)[C@@H](CO)O2)cc1C(F)(F)F [Trifluridine]	-0.19 ± 0.13
42	c1ccc(C2CN3CCSC3=N2)cc1 (single isomer, unassigned; (-)) [(-)-Tetramisole]	-0.9 ± 0.36
43	C[C@@H]1O[C@@H](O[C@H]2[C@H](Oc3cc(O)c4c(c3)O[C@H](c3ccc(O)cc3)CC4=O)O[C@H](CO)[C@@H](O)[C@@H]2O)[C@H](O)[C@H](O)[C@H]1O [Naringin]	-3.68 ± 1.3
44	CCN1CCCC1CNC(=O)c1cc(S(=O)(=O)CC)c(N)cc1OC (configuration not stated) [Amisulpride]	-0.7 ± 0.18
45	c1coc(CNc2ncnc3[nH]cnc23)c1 [Kinetin]	0.8 ± 0.3
46	Cc1cn([C@H]2C=C[C@@H](CO)O2)c(=O)[nH]c1=O [Stavudine (d4T)]	-0.83 ± 0.28
47	CNC[C@H](O)c1ccc(O)c(O)c1 [Epinephrine Bitartrate]	-0.07 ± 0.31
